# Source: the odorant receptor screen of Mainland et al. (2015)
# Values joined by “and” are separate entries in the source; they are usually repeats but may differ in a detail not shown here. Equal entries are not always repeated. The list shows a part of the results. Each value is one well over the wells without odorant, computed here; the data are noisy.
# Key:
# Test in all cases: odorant receptor activation (CRE luciferase / Renilla) (fold of no-odor wells); higher = more activation
# Details in all cases: 100 µM
# OR52H1 clone 1702 = tested on: OR52H1 clone 1702
# OR52I1 clone 1521 = tested on: OR52I1 clone 1521
# OR52I2 T132M clone 1324 = tested on: OR52I2 T132M clone 1324
# OR52K1 clone 1163 = tested on: OR52K1 clone 1163
# OR52K2 clone 1211 = tested on: OR52K2 clone 1211
# [1] = tested on: OR52L1 D73N/C125R/C146R/K168T/W282R clone 1116
# OR52L2 R169W clone 1117 = tested on: OR52L2 R169W clone 1117
# OR52M1 clone 1143 = tested on: OR52M1 clone 1143
# OR52N1 clone 1191 = tested on: OR52N1 clone 1191
# OR52N2 M228T clone 1569 = tested on: OR52N2 M228T clone 1569
# [2] = tested on: OR52N4 T106I/L167R/N218I clone 1127
# OR52N5 clone 1238 = tested on: OR52N5 clone 1238
# OR52P1 clone 1221 = tested on: OR52P1 clone 1221
# [3] = tested on: OR52R1 I129T/N201Y/S245A clone 1705
# OR52W1 clone 1234 = tested on: OR52W1 clone 1234
# OR56A1 clone 1114 = tested on: OR56A1 clone 1114
# OR56A3 M51T clone 1128 = tested on: OR56A3 M51T clone 1128
# OR56A4 clone 1724 = tested on: OR56A4 clone 1724
# OR56A5 clone 1708 = tested on: OR56A5 clone 1708
# OR56B1 C106R clone 1168 = tested on: OR56B1 C106R clone 1168
Compound,odorant receptor activation (OR52H1 clone 1702),odorant receptor activation (OR52I1 clone 1521),odorant receptor activation (OR52I2 T132M clone 1324),odorant receptor activation (OR52K1 clone 1163),odorant receptor activation (OR52K2 clone 1211),odorant receptor activation [1],odorant receptor activation (OR52L2 R169W clone 1117),odorant receptor activation (OR52M1 clone 1143),odorant receptor activation (OR52N1 clone 1191),odorant receptor activation (OR52N2 M228T clone 1569),odorant receptor activation [2],odorant receptor activation (OR52N5 clone 1238),odorant receptor activation (OR52P1 clone 1221),odorant receptor activation [3],odorant receptor activation (OR52W1 clone 1234),odorant receptor activation (OR56A1 clone 1114),odorant receptor activation (OR56A3 M51T clone 1128),odorant receptor activation (OR56A4 clone 1724),odorant receptor activation (OR56A5 clone 1708),odorant receptor activation (OR56B1 C106R clone 1168)
CC(C)C=O [isobutyraldehyde],1.1,1.08 and 1.12,0.984 and 0.973,1.18,1.19,0.779,0.866,0.997,1.07,1.06,1.07,0.839,1.18,0.974,0.643,1.14,1.63,0.759,1.12,1.15
"CC1CCC(C(C)C)C(O)C1 (single isomer, unassigned; (+)) [(+)-menthol]",0.756,0.914,1.05,1.05,0.944,26.7,21.2,1.25,1.69,0.685,0.719,0.675,1.25,1.21,0.981,18.5,1.49,0.75,1.04,0.689
CCCCCC(=O)O [caproic acid],1.11,0.805,1.05,0.834,0.981,1.09,0.957,0.925,1.01,0.886,0.743,0.521,1.1,0.66,0.862,0.932,1.11,0.716,0.9,1.17
CC(=O)OCC=C(C)CCC=C(C)C [geranyl acetate],1.4,0.985 and 1.77,0.972 and 1.01,1.15,0.987,1.38,1.41,0.871,1.08,1.36,2.69,2.23,1.33,1.13,2.29,0.986,1.18,1.18,0.777,1.4
CC(C)C(=O)O [isobutyric acid],1.1,1.11 and 1.07,1.05 and 0.768,0.928,0.751,0.615,1.32,0.825,0.969,0.92,1.08,0.997,0.96,0.848,0.814,0.603,0.95,0.773,1.23,1.21
COc1ccccc1O [guaiacol],1.05,0.821 and 1.28,0.772 and 0.755,0.965,0.837,0.667,1.45,0.717,0.978,1.1,1.31,0.971,1.13,0.766,0.839,1.6,1.3,0.809,0.593,1.13
CC(C)=CCCC(C)=CC=O [citral],1.41,1.03,1.17,1.05,1.14,1.08,1.19,1.16,1.02,1.3,1.26,1.53,1.07,1.01,2.15,0.92,0.896,0.931,0.897,1.17
CCCCO [1-butanol],0.84,1.32,0.8,1.18,0.585,20.6,20,1.03,1.25,1.06,0.797,0.65,0.963,1.23,0.795,16.5,1.88,0.978,1.07,0.944
CCCCCCCCC=O [nonyl aldehyde],1.17,0.917,0.979,0.943,1.12,1.01,1.18,1.05,0.973,0.658,0.865,1.01,1.13,0.996,0.644,1.23,0.967,1.34,1.35,0.997
CC(C)CC(=O)O [isovaleric acid],1.18,0.905,0.814,1.06,1.21,1.25,1.26,1.03,1.22,0.868,1.32,1.11,1.2,1.07,0.942,0.775,1.32,0.837,1.44,0.955
CC12CCC(C1)C(C)(C)C2=O (stereo not given) [fenchone],1.04,1.2,1.13,0.923,1.01,1.02,0.958,1.01,0.809,0.869,1.36,1.08,0.861,0.717,0.962,0.804,1.02,0.627,0.689,0.989
COC(=O)c1ccccc1O [methyl salicylate],1.2,0.933,0.964,0.808,0.888,1.1,1.1,0.877,0.984,0.957,0.917,0.823,1.01,1.1,0.67,1.01,1.08,0.679,1.15,0.718
O=C1CCCCCCCCCCCC(=O)OCCO1 [ethylene brassylate],1.06,1.52,1.51,2.01,1.63,1.68,2.04,1.65,1.72,1.69,0.74,1.76,1.72,1.59,1.11,1.19,2.01,1.48,1.24,1.87
CCCCCCCCOC(C)=O [octyl acetate],1.11,0.866,1.25,0.918,1.17,1.32,1.08,1.03,1.03,0.662,0.965,0.848,1.02,1.15,0.754,0.876,1.26,0.653,1.2,0.891
C=CCSCC=C [diallyl sulfide],0.709,1.26,1.32,0.794,1.07,1.09,1.02,1.03,0.948,0.919,1.07,0.929,0.983,0.684,1.02,0.814,1.01,0.63,0.862,0.923
CC(=O)C(C)=O [diacetyl],0.783,1.55,1.31,1.19,1.17,1.08,1.13,1.09,1.14,0.767,1.06,0.944,1.1,0.726,1.18,0.846,0.992,0.793,0.885,0.979
C=C(C)C1CC=CCC1 (stereo not given) [r-limonene],0.833,1.19 and 1.26 and 0.971,0.948 and 0.961,0.964 and 0.363,1.14 and 0.533,1.09,0.913,0.908 and 0.309,1.02 and 0.486,0.938,0.958,1.08,1.16 and 0.494,0.984,0.745,1.51 and 0.944,1.07 and 0.387,0.854,1.01,1.34 and 0.453
CC1=CCC(C(C)(C)O)CC1 (stereo not given) [terpineol],1.02,0.943,1.01,1.21,1.13,0.976,1,1.17,0.977,0.603,0.969,1.23,0.895,0.793,1.06,1.16,1.44,0.994,1.12,1.44
CCCCCCCCCCC=O [undecanal],0.969,0.841,0.989,0.928,0.95,0.966,0.804,0.902,0.874,0.755,1.04,1.16,0.906,0.922,1.7,1.8,0.987,10.8,1.26,1.21
CCCCCCCCCC=O [decyl aldehyde],0.959,1.3,1.83,1.16,1.24,1.48,1.22,1.56,1.04,0.772,1.05,1.29,1.4,0.752,1.16,1.19,1.41,3.26,0.952,1.3
CCC1(O)C2(C)CCC(C2)C1(C)C (stereo not given) [2-ethylfenchol],0.827,1.07,1.03,1.31,0.985,30.7,26.9,1.28,1.14,0.77,0.737,0.714,1.2,1.06,0.928,20.1,1.73,0.858,1.19,0.49
CC=Cc1ccc(O)c(OC)c1 [isoeugenol],1.92,1.06 and 2.19,1.16 and 1.36,1.18,1.14,0.618,2.31,1.15,0.931,4.91,5.35,3.38,2.51,1.68,3.29,1.13,1.25,3.83,1.47,0.878
CC/C=C\CCO [cis-3-hexen-1-ol],1.31,0.753,1.12,0.839,0.943,0.882,0.922,0.778,0.99,1.01,0.809,0.78,1.04,1.13,1.07,0.8,1.01,0.843,1.16,1.16
COc1cc(C)ccc1O [2-methoxy-4-methylphenol],0.746,0.854,1.14,1.54,0.839,15.8,11.2,1.49,3.05,0.875,0.959,0.738,1.15,1.05,0.993,9.51,1.03,0.868,1.06,0.846
COc1cc(C=O)ccc1O [vanillin],1.21,0.791,0.866,1.06,1.1,0.93,0.754,0.951,0.902,0.819,0.86,0.272,0.987,0.791,0.878,1.2,1.09,0.701,0.811,1.11
CC(=O)OC(C)(C)C1CC=C(C)CC1 (stereo not given) [terpinyl acetate],0.943,1.13,0.82,1.24,1.21,1.4,1.05,1.29,1.02,0.539,1.08,1.19,1.13,1.2,0.874,1.48,1.2,0.958,1.18,1.41

# In the list so far, 4 have an aryl methoxy group.
Compound,odorant receptor activation (OR52H1 clone 1702),odorant receptor activation (OR52I1 clone 1521),odorant receptor activation (OR52I2 T132M clone 1324),odorant receptor activation (OR52K1 clone 1163),odorant receptor activation (OR52K2 clone 1211),odorant receptor activation [1],odorant receptor activation (OR52L2 R169W clone 1117),odorant receptor activation (OR52M1 clone 1143),odorant receptor activation (OR52N1 clone 1191),odorant receptor activation (OR52N2 M228T clone 1569),odorant receptor activation [2],odorant receptor activation (OR52N5 clone 1238),odorant receptor activation (OR52P1 clone 1221),odorant receptor activation [3],odorant receptor activation (OR52W1 clone 1234),odorant receptor activation (OR56A1 clone 1114),odorant receptor activation (OR56A3 M51T clone 1128),odorant receptor activation (OR56A4 clone 1724),odorant receptor activation (OR56A5 clone 1708),odorant receptor activation (OR56B1 C106R clone 1168)
COc1ccccc1O [guaiacol],1.05,0.821 and 1.28,0.772 and 0.755,0.965,0.837,0.667,1.45,0.717,0.978,1.1,1.31,0.971,1.13,0.766,0.839,1.6,1.3,0.809,0.593,1.13
CC=Cc1ccc(O)c(OC)c1 [isoeugenol],1.92,1.06 and 2.19,1.16 and 1.36,1.18,1.14,0.618,2.31,1.15,0.931,4.91,5.35,3.38,2.51,1.68,3.29,1.13,1.25,3.83,1.47,0.878
COc1cc(C)ccc1O [2-methoxy-4-methylphenol],0.746,0.854,1.14,1.54,0.839,15.8,11.2,1.49,3.05,0.875,0.959,0.738,1.15,1.05,0.993,9.51,1.03,0.868,1.06,0.846
COc1cc(C=O)ccc1O [vanillin],1.21,0.791,0.866,1.06,1.1,0.93,0.754,0.951,0.902,0.819,0.86,0.272,0.987,0.791,0.878,1.2,1.09,0.701,0.811,1.11
